Results on 1 sequence are retold here after article doi:10.1101/2023.11.14.566657.

The chains behind the UniProt entries cited, without tags or fusion partners. Where a name states a change or a piece, a line headed by the entry shows the natural chain unless it says otherwise.
UniProt P43351: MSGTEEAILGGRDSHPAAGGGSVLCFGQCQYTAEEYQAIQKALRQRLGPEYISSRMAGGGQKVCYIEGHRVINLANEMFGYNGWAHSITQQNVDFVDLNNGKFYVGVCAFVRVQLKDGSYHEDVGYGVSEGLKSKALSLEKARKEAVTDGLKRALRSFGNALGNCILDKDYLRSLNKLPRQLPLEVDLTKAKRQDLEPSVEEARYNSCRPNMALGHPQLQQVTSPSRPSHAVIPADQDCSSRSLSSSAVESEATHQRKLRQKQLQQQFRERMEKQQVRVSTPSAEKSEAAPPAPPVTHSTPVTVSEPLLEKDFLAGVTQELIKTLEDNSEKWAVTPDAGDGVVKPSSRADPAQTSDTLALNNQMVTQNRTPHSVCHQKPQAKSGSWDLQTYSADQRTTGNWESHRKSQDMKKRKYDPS

This data set addresses RAD52 wild type (human) (UniProt P43351). In words: mass photometry. Conditions: 200 nM DNA, spool-like double ring rare.

Construct, isoform or probe ends are uncertain for at least one entry. At least one verdict was read from the data and is not stated in words by the source.

In the case of “TTTTTTTTTTTTTTTTTTTTTTTTTTTTTTTTTTTTTTTTTTTTTTTTTTTTTTTTTTTTTTTTTTTTTTTTTTTTTTTTTTTTTTTTTT [dT90]”, the binding result was “binds”.
